# Test results reported in the supplement of paper PMC10338343.
# ± gives the standard deviation. The list shows a part of the results. The uncertainty is large for many entries.
# System: EfPiwi piRISC loaded with L1MC piRNA (26 nt)
# Assay: pre-steady-state target cleavage rate (min^-1); guide: L1MC piRNA 5'p-UAACUAAAUACUAUGCAAGCUGUAGG; MIWI and MILI are mouse PIWI proteins and EfPiwi is from a freshwater sponge; tags in brackets are library labels; higher = faster piRNA-guided slicing of the target
# Details: auxiliary factor: 500 nM Ephydatia muelleri Gtsf1
# Summary of the method: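 Cleave-'n-Seq used a transcribed, DNA-blocked target RNA library at 0.1 nM and active affinity-purified piRISC with one synthetic guide at 1 nM, with or without 500 nM GTSF1 partner protein, in HEPES–potassium acetate buffer at 33 °C for 0–8 or 0–960 min. Uncleaved targets were sequenced and normalised to depth and to weakly complementary targets, and three trials were pooled with k3 capped at 0.0001 min^-1. The pre-steady-state cleavage rate was estimated by a burst-and-steady-state fit.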
row,Sequence,pre-steady-state target cleavage rate
1,UCCUCCUACAGCAUGCAUAGUAUUAAGUUA,0.00654 ± 0.0033
2,UCCUCCUACAGCUUGCUUAGUAUUUAGUAA,0.00594 ± 0.0027
3,UCCUGGUAUCAGCUUGCAUAGUAUUUAGUUA,0.0704 ± 0.018
4,UCCUCGUACUGCUUGCAUAGUAUUUAGUUA,0.0721 ± 0.018
5,UCCUGCUAGAGCUUGCAUUGUAUUUAGUUA,0.00751 ± 0.0022
6,UCCUGGAUGAGCUUGCAAACUAUUUAGUUA,0.00161 ± 0.0021
7,UCCUCCUACAGGCUUGCAUAGUAUUUAGUUA,0.0234 ± 0.0078
8,UCCUGGAACAGCUGGCAUAGUAUUUAGUUA,0.00699 ± 0.0026
9,UCCUGGAUCAGCUUGCAUAGUAUUUUGUUA,0.0125 ± 0.0042
10,UCCUGGAUGUCGAUGCAAUCUAUUUAGUUA,0.000263 ± 0.0088
11,UCCUCCUACAGCUUGGCAUAGUAUUUAGUUA,0.0133 ± 0.0047
12,UCCUCCUACAGCAUGCUUAGUAUUUAGUUA,0.0116 ± 0.0032
13,UCCUGGUACAGCUUGCAUAGUAUUAAGUUA,0.00521 ± 0.0021
14,UCCUGCUACUCCUUGCAUAGUAUUUAGUAA,0.00443 ± 0.003
15,UCCUGGAUGUGCUAUGCAUAGUAUUUAGUUA,0.0103 ± 0.0036
16,UCCUGGAUGUCGAACGAUAGUAUAAAGUUA,0.000143 ± 0.037
17,UCCUGGAUCUGCUUGCAUAGUAUUUAGUUA,0.116 ± 0.023
18,UCCUGGAUGUCGAACGUUAGUAUUUUCAAA [g6:g13:cont:t1A],< 0.0001

row,Sequence,pre-steady-state target cleavage rate
1,UCCUGCUACAGCUUGCAAAGUAUUUUGUUA,0.00625 ± 0.0028
2,UCCUGGAUGUCGAACGUUAGUAAUUAGAUA,0.000196 ± 0.029
3,UCCUCCUACAGCUAGCAUAGUAUUAAGUUA,0.00633 ± 0.0029
4,UCCUGCUACAGACUUGCAUAGUAUUUAGUUA,0.00603 ± 0.0024
5,UCCUGGAACACUUGCAUAGUAUUUAGUUA,0.0107 ± 0.0034
6,UCCUCCUACAGACUUGCAUAGUAUUUAGUUA,0.017 ± 0.006
7,UCCUGGAACAGCCUGCAUAGUAUUUAGUUA,0.0144 ± 0.0045
8,UCCUGGAACAGCUUGCAUAGUAUUUAGUAA,0.00976 ± 0.0038
9,UCCUGGAUCAGCUUGCAUAGUAUUAAGUUA,0.0323 ± 0.0094
10,UCCUGGAUGAGCUUCGCAUAGUAUUUAGUUA,0.0219 ± 0.0059
11,UCCUGGAUGUCGAACGAUACGUAUUUAGUUA,< 0.0001
12,UCCUGGAACAGCUUGAAUAGUAUUUAGUUA,0.0656 ± 0.017
13,UCCUCCUACUCCUUGCAUAGUAUUUAGUUA,0.165 ± 0.046
14,UCCUCCUACAGCAUGCAAAGUAUUUAGUUA,0.0492 ± 0.017
15,UCCUGGAACUGGUUGCAUAGUAUUUAGUUA,0.02 ± 0.0073
16,UCCUCCUAGAGCUUGCAUAGUAUAUAGUUA,0.00597 ± 0.0022
17,UCCUGCUACAGCUUGCAUAGUAUUUAGUCUA,0.00636 ± 0.0024
18,UCCUGGAUGUCGAACGUAUCUAUUAUCUUA,< 0.0001

# Reprinted from the results shown for reference:
row,Sequence,pre-steady-state target cleavage rate
7,UCCUGGAACAGCCUGCAUAGUAUUUAGUUA,0.0144 ± 0.0045
8,UCCUGGAACAGCUUGCAUAGUAUUUAGUAA,0.00976 ± 0.0038

# Same assay, conditions: auxiliary factor: none (no Gtsf1)
row,Sequence,pre-steady-state target cleavage rate
1,UCCUGGAUGUCGAACGUUAGUAAUAAGUUA,0.000102 ± 0.039
2,UCCUGCUACACCAUGCAUAGUAUUUAGUUA,0.000316 ± 0.018
3,UCCUGGAUCAGGUUGCAUAGUAUUUAGUUA,0.00103 ± 0.01
4,UCCUGGUACAGGCUUGCAUAGUAUUUAGUUA,0.00112 ± 0.014
